Assay results from article PMC10114496.
These are yes or no findings as the source states them, for the method shown. In cells and extracts the contact can be indirect. These calls come from enrichment with a bait or labelling near it, and not all partners need be listed.

By UniProt entry, the sequences of proteins in these tests, tags left out.
UniProt Q9NVP2: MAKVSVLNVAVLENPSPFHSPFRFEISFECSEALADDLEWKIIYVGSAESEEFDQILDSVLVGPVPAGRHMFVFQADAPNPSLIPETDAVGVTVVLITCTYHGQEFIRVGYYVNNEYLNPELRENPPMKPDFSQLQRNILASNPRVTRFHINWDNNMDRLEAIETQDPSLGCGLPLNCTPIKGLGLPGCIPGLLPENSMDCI
UniProt Q9Y294: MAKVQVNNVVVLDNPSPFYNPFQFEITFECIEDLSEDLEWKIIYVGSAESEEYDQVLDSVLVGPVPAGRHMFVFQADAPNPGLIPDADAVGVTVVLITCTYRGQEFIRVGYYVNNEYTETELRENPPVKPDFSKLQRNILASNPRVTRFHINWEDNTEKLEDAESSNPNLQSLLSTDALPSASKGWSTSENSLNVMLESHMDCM
UniProt Q6ZU65: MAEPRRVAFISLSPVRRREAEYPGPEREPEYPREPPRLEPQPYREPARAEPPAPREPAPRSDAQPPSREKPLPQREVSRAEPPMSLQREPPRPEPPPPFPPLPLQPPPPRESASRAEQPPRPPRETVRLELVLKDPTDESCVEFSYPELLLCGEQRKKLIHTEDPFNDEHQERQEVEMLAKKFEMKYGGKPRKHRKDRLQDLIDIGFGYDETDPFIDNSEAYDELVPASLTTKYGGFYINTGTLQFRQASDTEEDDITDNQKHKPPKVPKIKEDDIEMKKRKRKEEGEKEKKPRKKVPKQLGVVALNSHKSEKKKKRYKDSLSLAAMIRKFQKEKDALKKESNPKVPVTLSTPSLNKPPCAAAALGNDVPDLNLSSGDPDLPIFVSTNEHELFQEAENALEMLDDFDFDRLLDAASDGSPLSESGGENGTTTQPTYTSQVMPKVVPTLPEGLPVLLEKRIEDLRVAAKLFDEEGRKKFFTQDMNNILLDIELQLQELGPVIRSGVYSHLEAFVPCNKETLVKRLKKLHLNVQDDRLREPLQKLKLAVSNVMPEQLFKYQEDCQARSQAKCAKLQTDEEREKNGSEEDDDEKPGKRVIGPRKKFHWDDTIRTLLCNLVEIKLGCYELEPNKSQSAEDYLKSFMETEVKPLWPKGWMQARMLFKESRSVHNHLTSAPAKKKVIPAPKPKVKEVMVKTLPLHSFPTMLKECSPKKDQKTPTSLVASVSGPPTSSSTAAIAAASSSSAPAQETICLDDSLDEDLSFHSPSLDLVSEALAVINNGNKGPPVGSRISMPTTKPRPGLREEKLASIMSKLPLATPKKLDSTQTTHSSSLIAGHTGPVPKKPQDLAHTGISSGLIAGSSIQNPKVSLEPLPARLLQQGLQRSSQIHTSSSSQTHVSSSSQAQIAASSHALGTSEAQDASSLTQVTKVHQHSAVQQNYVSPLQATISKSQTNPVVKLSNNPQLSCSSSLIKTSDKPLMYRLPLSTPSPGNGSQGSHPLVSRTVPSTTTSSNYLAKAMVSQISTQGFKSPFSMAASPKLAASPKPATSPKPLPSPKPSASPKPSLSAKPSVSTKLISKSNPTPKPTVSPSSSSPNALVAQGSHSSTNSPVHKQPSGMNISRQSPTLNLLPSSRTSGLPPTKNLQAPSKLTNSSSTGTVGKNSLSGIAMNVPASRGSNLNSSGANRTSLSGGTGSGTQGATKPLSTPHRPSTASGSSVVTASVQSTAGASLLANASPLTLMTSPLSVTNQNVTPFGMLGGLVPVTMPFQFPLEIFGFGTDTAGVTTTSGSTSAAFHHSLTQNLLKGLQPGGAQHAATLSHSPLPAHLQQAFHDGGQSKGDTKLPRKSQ
UniProt P52294: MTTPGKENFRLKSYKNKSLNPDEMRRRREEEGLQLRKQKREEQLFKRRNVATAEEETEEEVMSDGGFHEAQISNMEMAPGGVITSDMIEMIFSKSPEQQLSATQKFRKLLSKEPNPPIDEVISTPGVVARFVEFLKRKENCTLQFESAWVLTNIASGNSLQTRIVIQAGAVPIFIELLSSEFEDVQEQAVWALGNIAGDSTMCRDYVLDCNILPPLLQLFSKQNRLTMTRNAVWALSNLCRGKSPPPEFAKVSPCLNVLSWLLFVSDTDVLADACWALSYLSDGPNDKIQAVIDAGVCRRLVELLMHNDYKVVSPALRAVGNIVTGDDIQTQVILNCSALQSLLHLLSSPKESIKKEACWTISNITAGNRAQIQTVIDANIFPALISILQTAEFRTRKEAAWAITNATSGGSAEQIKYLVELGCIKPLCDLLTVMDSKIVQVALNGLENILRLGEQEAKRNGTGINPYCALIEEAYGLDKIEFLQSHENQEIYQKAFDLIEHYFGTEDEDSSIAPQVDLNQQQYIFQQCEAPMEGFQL
UniProt Q9Y6J0: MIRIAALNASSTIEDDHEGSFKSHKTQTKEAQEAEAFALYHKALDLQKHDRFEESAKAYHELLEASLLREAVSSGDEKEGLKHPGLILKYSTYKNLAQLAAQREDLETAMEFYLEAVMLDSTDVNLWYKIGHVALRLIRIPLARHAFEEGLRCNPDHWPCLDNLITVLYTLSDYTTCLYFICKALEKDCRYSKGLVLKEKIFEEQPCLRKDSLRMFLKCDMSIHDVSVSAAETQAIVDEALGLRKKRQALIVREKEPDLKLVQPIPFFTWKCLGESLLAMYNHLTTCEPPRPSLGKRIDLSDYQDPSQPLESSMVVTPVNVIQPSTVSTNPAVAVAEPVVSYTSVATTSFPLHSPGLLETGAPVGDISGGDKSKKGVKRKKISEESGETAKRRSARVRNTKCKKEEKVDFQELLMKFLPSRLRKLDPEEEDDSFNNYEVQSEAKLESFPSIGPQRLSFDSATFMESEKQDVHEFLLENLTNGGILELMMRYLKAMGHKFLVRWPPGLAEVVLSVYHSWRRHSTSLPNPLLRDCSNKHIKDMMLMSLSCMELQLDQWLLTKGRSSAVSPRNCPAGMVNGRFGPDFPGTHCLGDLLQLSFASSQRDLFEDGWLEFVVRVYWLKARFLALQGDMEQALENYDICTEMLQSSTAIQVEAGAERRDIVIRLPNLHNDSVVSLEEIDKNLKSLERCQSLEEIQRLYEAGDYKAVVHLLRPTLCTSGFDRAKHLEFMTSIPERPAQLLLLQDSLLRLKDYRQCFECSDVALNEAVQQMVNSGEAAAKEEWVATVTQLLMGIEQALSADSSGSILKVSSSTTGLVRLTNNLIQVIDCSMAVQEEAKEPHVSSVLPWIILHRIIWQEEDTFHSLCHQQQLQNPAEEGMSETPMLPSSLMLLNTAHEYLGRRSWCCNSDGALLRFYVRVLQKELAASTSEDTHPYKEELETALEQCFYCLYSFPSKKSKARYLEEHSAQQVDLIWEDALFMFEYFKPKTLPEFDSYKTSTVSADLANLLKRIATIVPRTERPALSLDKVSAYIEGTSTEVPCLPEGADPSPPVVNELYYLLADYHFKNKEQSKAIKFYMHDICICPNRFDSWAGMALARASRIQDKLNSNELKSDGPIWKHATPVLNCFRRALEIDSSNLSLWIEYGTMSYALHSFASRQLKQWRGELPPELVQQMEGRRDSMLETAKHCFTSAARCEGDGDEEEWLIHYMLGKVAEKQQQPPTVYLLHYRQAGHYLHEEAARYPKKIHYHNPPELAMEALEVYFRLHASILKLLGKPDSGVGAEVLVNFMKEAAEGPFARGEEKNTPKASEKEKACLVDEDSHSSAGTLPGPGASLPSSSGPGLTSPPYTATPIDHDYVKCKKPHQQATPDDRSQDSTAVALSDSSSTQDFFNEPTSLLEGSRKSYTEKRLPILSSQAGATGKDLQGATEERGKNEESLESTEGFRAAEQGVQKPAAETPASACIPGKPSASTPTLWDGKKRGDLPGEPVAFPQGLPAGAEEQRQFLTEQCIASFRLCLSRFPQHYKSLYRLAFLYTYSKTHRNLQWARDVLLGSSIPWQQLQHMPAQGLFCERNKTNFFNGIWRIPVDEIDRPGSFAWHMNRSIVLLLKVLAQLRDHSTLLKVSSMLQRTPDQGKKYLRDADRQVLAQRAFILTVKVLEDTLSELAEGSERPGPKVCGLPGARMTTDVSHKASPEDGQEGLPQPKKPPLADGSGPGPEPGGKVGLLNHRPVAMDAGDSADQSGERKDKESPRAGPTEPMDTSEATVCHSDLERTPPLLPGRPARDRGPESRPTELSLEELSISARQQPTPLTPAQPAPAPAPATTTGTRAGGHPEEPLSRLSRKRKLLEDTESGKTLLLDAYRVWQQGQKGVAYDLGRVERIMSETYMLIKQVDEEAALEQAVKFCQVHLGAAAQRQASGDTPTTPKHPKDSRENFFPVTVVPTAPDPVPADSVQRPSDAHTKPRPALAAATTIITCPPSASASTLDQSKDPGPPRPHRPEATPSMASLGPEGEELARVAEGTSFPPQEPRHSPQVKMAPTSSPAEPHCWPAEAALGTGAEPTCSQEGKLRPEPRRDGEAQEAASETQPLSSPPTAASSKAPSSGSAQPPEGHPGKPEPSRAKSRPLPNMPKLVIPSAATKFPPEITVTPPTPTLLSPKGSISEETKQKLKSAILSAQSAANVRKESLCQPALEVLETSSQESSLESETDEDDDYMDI
UniProt P54198: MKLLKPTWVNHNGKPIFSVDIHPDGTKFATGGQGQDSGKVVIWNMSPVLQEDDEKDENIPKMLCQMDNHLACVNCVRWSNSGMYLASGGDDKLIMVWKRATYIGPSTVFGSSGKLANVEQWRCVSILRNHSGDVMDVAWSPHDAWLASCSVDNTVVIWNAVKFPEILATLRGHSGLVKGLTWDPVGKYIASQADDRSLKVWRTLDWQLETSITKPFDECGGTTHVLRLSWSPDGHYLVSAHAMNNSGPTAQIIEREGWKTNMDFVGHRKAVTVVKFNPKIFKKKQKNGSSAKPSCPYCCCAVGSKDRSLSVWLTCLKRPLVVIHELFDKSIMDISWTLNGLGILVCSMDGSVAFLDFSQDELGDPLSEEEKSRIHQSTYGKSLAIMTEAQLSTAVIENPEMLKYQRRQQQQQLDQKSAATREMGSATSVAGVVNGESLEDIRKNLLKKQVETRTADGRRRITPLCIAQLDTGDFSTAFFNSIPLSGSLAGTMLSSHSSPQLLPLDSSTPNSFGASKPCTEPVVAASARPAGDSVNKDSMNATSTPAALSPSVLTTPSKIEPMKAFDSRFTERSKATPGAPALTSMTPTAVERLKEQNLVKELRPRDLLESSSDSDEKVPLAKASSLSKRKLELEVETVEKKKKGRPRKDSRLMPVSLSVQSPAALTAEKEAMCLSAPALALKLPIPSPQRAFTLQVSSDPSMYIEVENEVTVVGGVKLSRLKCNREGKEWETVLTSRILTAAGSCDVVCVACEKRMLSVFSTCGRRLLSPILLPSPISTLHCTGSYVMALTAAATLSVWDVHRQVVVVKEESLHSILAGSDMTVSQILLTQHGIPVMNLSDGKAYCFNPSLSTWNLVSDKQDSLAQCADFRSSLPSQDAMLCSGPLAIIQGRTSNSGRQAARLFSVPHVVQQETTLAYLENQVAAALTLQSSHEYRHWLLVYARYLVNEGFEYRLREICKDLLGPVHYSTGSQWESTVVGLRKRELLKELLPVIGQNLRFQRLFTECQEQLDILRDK

How the values were obtained:
Assay in all cases: affinity purification with mass spectrometry; triple SILAC IP-MS: Strep-HA-tagged chaperone (WT, mutant, control cells) held on MagStrep type3 XT beads for 3 hrs at 4 °C from soluble HeLa S3 extracts (300 mM NaCl, 0.05 % Nonidet P40, 50 mM Tris.HCl pH 7.6); washes at 150 mM NaCl; eluted with BXT buffer
[1] = target: sNASP-WT-Strep-HA (human) (UniProt P49321)
[2] = target: Strep-HA-ASF1b-WT (human) (UniProt Q9NVP2)
[3] = target: Strep-HA-ASF1a-WT (human) (UniProt Q9Y294)

Substance | binding [1] | binding [2] | binding [3]
U520 (from UniProt O75643 1-2136) | binds | – | –
UBN2 (from UniProt Q6ZU65 1-1347) | – | binds | binds
IMA5/KPNA1 (from UniProt P52294 1-538) | binds | – | –
CABIN (from UniProt Q9Y6J0 1-2220) | – | binds | binds
HNRPK (from UniProt P61978 1-463) | binds | – | –
HIRA (from UniProt P54198 1-1017) | – | binds | binds
